Source: patent US20220290149, “METHOD OF DETECTION OF FIBRIN CLOTS” (I-ZUM-X PTY LTD, published 2022)
For some of these results: No signal at the amounts used counts as a negative. For some of these results: The exact form of at least one protein or probe is not confirmed.

Experiments:
[1] = tested on: SUBpr1 (subtraction protein + DD minus D protein); experiment: ELONA; conditions: purified native protein, protein details: immobilised, single-stranded DNA
[2] = tested on: Insoluble cross-linked fibrin / plasma-derived blood clot (Homo sapiens); experiment: ELONA; conditions: purified native protein; protein details: clot prepared from citrated plasma plus CaCl2; label: 5' FAM (ELONA and imaging); single-stranded DNA
[3] = tested on: Insoluble cross-linked fibrin / plasma-derived blood clot (Homo sapiens); experiment: binding assay; conditions: qPCR-based binding assay; purified native protein; protein details: clot prepared from citrated plasma plus CaCl2; label: 5' FAM (ELONA and imaging); single-stranded DNA
[4] = tested on: Mouse plasma-derived blood clot (cross-linked fibrin) (Mus musculus); experiment: binding assay; conditions: imaging of mouse plasma clots; purified native protein; label: 5' FAM (ELONA and imaging); single-stranded DNA
[5] = tested on: Fibrinogen B beta chain peptide 201-216 (fibrinopeptide); experiment: BLI; conditions: purified recombinant protein; protein details: 6xHis; label: 5' biotin; single-stranded DNA
[6] = tested on: Fibrinogen B beta chain peptide 201-216 (fibrinopeptide); experiment: ELONA; conditions: enhanced versus negative control aptamer; purified recombinant protein; protein details: 6xHis; label: 5' biotin; single-stranded DNA
[7] = tested on: Immobilised plasma proteins; experiment: binding assay; conditions: qPCR-based assay; purified native protein; protein details: amine-binding plate; label: 5' FAM (ELONA and imaging); single-stranded DNA

Sequence: ACAGTGTGGGCGGGCGGGTGGTTTGGAGCTGGTAGCGGTA [AP10-01]
- binding result ([1]; no binding pattern, variant of AP10-01-81): no binding

Sequence: GGACAGGACCACACCCAGCGACAGTGTGGGCGGGCGGGTGGTTTGGAGCTGGTAGCGGTAGGCTCCTGTGTGTCGCTTTGT [AP10-01-81]
- binding result [1]: no binding

Sequence: GGACAGGACCACACCCAGCGATAATTAGGCATCCGGTCGCCAACCTTGGAGAAACTATCTGGCTCCTGTGTGTCGCTTTGT [RNV605]
- Kd [2]: 0.118 nM
- Kd [3]: 85.8 nM
- binding result [4]: binds

Sequence: GGACAGGACCACACCCAGCGGGCGGGCGGGGGAGGTGGAGGAAATGTGGGGAATGGGTACGGCTCCTGTGTGTCGCTTTGT [RNV747]
- binding result [5]: binds

Sequence: GGACAGGACCACACCCAGCGGGCGGGCGGGGGAGGTGGAGGAAATGTGGGGAATGGGTGCGGCTCCTGTGTGTCGCTTTGT [RNV745]
- binding result [6]: binds

Sequence: GGACAGGACCACACCCAGCGGTGGGGGGGGAGGAGGGTGGGGAGAAGGGTCAATGGTGGTGGCTCCTGTGTGTCGCTTTGT [RNV746]
- binding result [5]: binds

Sequence: GGACAGGACCACACCCAGCGTAATAATATGGGGCTTGCGGTCCCCGATTTTTATGCACACGGCTCCTGTGTGTCGCTTTGT [RNV602]
- Kd [2]: 0.404 nM
- Kd [3]: 46.1 nM
- binding result [4]: binds
- binding result [7]: no binding

Sequence: GGACAGGACCACACCCAGCGTGGTGGTGAAGAGGTGGGAGGGAGGGCCCCGCGATGGTAAGGCTCCTGTGTGTCGCTTTGT [RNV744]
- binding result [6]: binds
